Experimental data from the supplement of paper PMC6078165.
Values are relative to the signal before dosing, not to a vehicle control; the signal also falls without drug.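 Fibroblast labels name human fibroblasts: mostly primary ones from tissues such as uterus (C12385, HUF), lung (H6013), bone (Hs27A), adrenal (HADF) and skin (WS1), plus mammary HMF and breast cancer-associated Hs343T. The cancer cells are basal-like or mesenchymal-like triple-negative breast cancer lines. The paper calls a changed response a hit when it shifts by more than 3x the replicate standard deviation. The tissue of the other fibroblasts is not given here.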

Tested on: Hs578T
Test: relative JC-1 red fluorescence (viability) vs pre-drug, coculture with fibroblast (fraction); higher = more viable cancer cells
Procedure: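 JC-1 labelled TNBC cells cocultured 1:1 (1,500 cells each) with CellTrace Violet stained primary or stromal fibroblasts in 384-well plates in FluoroBrite medium, treated with one of 42 anticancer drugs at 0.1, 1, 10 or 100 uM. JC-1 red fluorescence (mitochondrial integrity in cancer cells only) was read by plate reader every 8 h for 72 h. Values are normalised to each well's pre-drug value. The stock of one drug was tenfold lower, so its dose labels may be too high.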

N#Cc1ccc(C(c2ccc(C#N)cc2)n2cncn2)cc1 [Letrozole]
relative JC-1 red fluorescence
Conditions	8 h	16 h	24 h	32 h	40 h	48 h	56 h	64 h	72 h
0.1 µM	0.864	0.765	0.7261	0.712	0.661	0.627	0.61	0.561	0.543
1 µM	0.8763	0.785	0.749	0.721	0.673	0.637	0.614	0.577	0.555

relative JC-1 red fluorescence
Conditions	8 h	16 h	24 h	32 h	40 h	48 h	56 h	64 h	72 h
0.1 µM, coculture fibroblast: C12385	0.839	0.7112	0.688	0.582	0.522	0.483	0.453	0.441	0.44
0.1 µM, coculture fibroblast: H6013	0.829	0.801	0.761	0.732	0.7	0.687	0.668	0.663	0.637
0.1 µM, coculture fibroblast: H6019	0.755	0.673	0.624	0.5265	0.479	0.455	0.422	0.412	0.392
0.1 µM, coculture fibroblast: H6076	0.8988	0.8159	0.752	0.725	0.679	0.665	0.646	0.64	0.638
0.1 µM, coculture fibroblast: H6231	0.9048	0.7825	0.707	0.662	0.592	0.559	0.507	0.488	0.466
0.1 µM, coculture fibroblast: HADF	0.841	0.724	0.635	0.57	0.5216	0.4924	0.459	0.447	0.426
0.1 µM, coculture fibroblast: HCFa	0.828	0.76	0.707	0.657	0.602	0.579	0.553	0.531	0.495
0.1 µM, coculture fibroblast: HCPF	0.9401	0.837	0.8	0.769	0.695	0.664	0.639	0.61	0.592
0.1 µM, coculture fibroblast: HHSteC	0.873	0.767	0.702	0.636	0.577	0.543	0.517	0.492	0.461
0.1 µM, coculture fibroblast: HMF	0.891	0.79	0.72	0.69	0.629	0.592	0.559	0.542	0.5305
0.1 µM, coculture fibroblast: HPFa	0.896	0.789	0.709	0.64	0.589	0.54	0.496	0.476	0.433
0.1 µM, coculture fibroblast: HUF	0.86	0.724	0.679	0.568	0.507	0.473	0.436	0.425	0.415
0.1 µM, coculture fibroblast: Hs27A	0.889	0.775	0.724	0.667	0.608	0.584	0.538	0.523	0.473
0.1 µM, coculture fibroblast: Hs343T	0.913	0.801	0.747	0.7225	0.6485	0.6215	0.579	0.55	0.54901
0.1 µM, coculture fibroblast: WS1	0.836	0.718	0.647	0.55	0.492	0.468	0.434	0.428	0.417
1 µM, coculture fibroblast: C12385	0.84	0.731	0.712	0.627	0.569	0.541	0.522	0.513	0.514
1 µM, coculture fibroblast: H6013	0.9283	0.855	0.8	0.766	0.716	0.698	0.669	0.653	0.613
1 µM, coculture fibroblast: H6019	0.774	0.669	0.63	0.529	0.492	0.464	0.43	0.406	0.38
1 µM, coculture fibroblast: H6076	0.8546	0.7415	0.719	0.712	0.683	0.697	0.698	0.706	0.726
1 µM, coculture fibroblast: H6231	0.909	0.812	0.734	0.705	0.65	0.63	0.595	0.569	0.556
1 µM, coculture fibroblast: HADF	0.87698	0.794	0.7444	0.6966	0.658	0.636	0.6	0.591	0.561
1 µM, coculture fibroblast: HCFa	0.865	0.7745	0.7347	0.685	0.62	0.599	0.563	0.548	0.509
1 µM, coculture fibroblast: HCPF	0.925	0.837	0.773	0.736	0.672	0.64028	0.616	0.574	0.548
1 µM, coculture fibroblast: HHSteC	0.861	0.773	0.674	0.611	0.543	0.505	0.468	0.444	0.401
1 µM, coculture fibroblast: HMF	0.8493	0.751	0.682	0.666	0.607	0.579	0.544	0.528	0.52
1 µM, coculture fibroblast: HPFa	0.922	0.839	0.772	0.699	0.65	0.612	0.562	0.533	0.484
1 µM, coculture fibroblast: HUF	0.861	0.759	0.743	0.632	0.567	0.529	0.504	0.49	0.485
1 µM, coculture fibroblast: Hs27A	0.885	0.828	0.776	0.736	0.668	0.649	0.608	0.596	0.545
1 µM, coculture fibroblast: Hs343T	0.888	0.775	0.694	0.669	0.605	0.574	0.536	0.522	0.523
1 µM, coculture fibroblast: WS1	0.8014	0.683	0.64	0.539	0.478	0.457	0.432	0.435	0.436
